Paper PMC8428568, “Discovery of re-purposed drugs that slow SARS-CoV-2 replication in human cells” (PLoS Pathogens, 2021)
Where two headings read alike, the source gives them in different places.

Legend:
[1] = system: SARS-CoV-2-ΔOrf7a-NLuc virus; assay: microbe, parasite or virus in culture; type: cell-based
[2] = system: SARS-CoV-2-ΔOrf7a-NLuc virus; assay: microbe, parasite or virus in culture; type: cell-based; remark: listed apart in the source
[3] = system: SARS-CoV-2-ΔOrf7a-NLuc virus; assay: Post-infection treatment: Vero cells infected 24 hrs with SARS-CoV-2-ΔOrf7a-NLuc, then compound for 48 hrs, bioluminescence; type: cell-based; conditions: change in replication relative to DMSO, then treated 48 hrs
recombinant NLuc = type: biochemical; conditions: recombinant NLuc activity relative to DMSO
HUH7 cells = conditions: HUH7 screen

In the case of `CC(C)(C)c1ccc(C(=O)CCCN2CCC(OC(c3ccccc3)c3ccccc3)CC2)cc1` [Ebastine], the “% activity in Vero 100PFU screen” value [1] is reported as 4%, the IC50 ([1]; Severe acute respiratory syndrome coronavirus 2, Vero, read-out: Vero IC50) is reported as 5 µM and the “Mean relative luminescence (n=4)” value ([1]; Vero screen, […], relative luminescence) is reported as 0.007931. For the same compound, the “Mean relative luminescence (n=4)” value ([2]; HUH7 screen, […], relative luminescence) was 0.01594, the IC50 ([2]; Severe acute respiratory syndrome coronavirus 2, Huh-7, read-out: HUH7 IC50) was 0.5 µM and the “Post-infection at IC50” value [3] was -25%. The “Relative Recombinant NLUC” value (recombinant NLuc) was 0.8576, the PrestoBlue relative viability (Vero cells; Vero cells, 10 μM, 1 = DMSO-treated infected cells) was 0.6054 and the PrestoBlue relative viability (Vero cells; Vero screen) was 0.6054. It also gave a PrestoBlue relative viability (HUH7 cells) of 1.614.
